This note sets out measurements from publication PMC12140318.

Sequences of proteins named here, by UniProt entry; tags and fusion partners are left off. A change or cut given only in a name is not applied to a line headed by its entry.
UniProt P06702: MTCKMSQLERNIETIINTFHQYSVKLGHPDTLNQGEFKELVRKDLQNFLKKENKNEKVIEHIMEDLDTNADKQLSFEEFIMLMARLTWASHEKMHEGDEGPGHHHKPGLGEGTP
UniProt P45973: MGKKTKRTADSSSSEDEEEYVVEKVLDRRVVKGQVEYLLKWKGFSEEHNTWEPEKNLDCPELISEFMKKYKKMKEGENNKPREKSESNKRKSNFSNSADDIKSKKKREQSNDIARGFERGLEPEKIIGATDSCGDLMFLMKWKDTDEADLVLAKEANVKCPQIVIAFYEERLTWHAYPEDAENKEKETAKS

The experiment addresses full-length S100A9 in the nucleus (pDC315-3NLS-S100A9-3NLS-3Flag) (human) (UniProt P06702). Put plainly: affinity purification with mass spectrometry; 500 µg total protein of hAFs with or without nuclear S100A9 overexpression in IP lysis buffer, Flag antibody-coupled beads overnight at 4 °C, elution with glycine-HCl pH 2.5, trypsin digest, LC-MS/MS (DIA).

Results are given in words; binding and its absence hold for the method and conditions named. In cells and extracts the contact can be indirect. These calls come from enrichment with a bait or labelling near it, and not all partners need be listed.

With “CBX5 (Chromobox protein homolog 5) (from UniProt P45973 1-191)”, the binding entry was “binds”.
